AC50 and cell number change data for 60 compounds are collected here from PubChem BioAssay AID2685 (National Center for Advancing Translational Sciences (NCATS), 2010).

Some of the results follow. Further columns of the screen follow, without active or inactive calls. The list favours compounds with an active or inconclusive main result. Potencies come from curve fits of mixed quality, noted in brackets.

A short description of this test: qHTS Assay for Lipid Storage Modulators in Drosophila S3 Cells.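 On cell number change: cells counted by Cell Tracker Red CMTPX staining in the red channel.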 To be noted: BODIPY lipid droplet fluorescence, 18-24 h; for cell number change: measured here: cell count max response, cells fed with added oleic acid. The procedure, abridged: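 Laser-scanning cytometry quantifies lipid droplet accumulation (500–530 nm total intensity; droplet/cell object ratio) in oleic acid-fed (400 uM added) Drosophila S3 cells treated with a concentration series. 20 uM Triacsin C defined 100% inhibition.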
(In general: In qHTS, concentration-response curves come from the screen itself.)

Setting [1] is: measured here: lipid fluorescence (Fed channel) AC50, cells fed with added oleic acid.
Where [2] appears, read: measured here: cell number channel AC50, cells fed with added oleic acid.

Usually AC50 stands for the concentration giving half of the maximal activity seen. With `Cc1c(C#N)c(O)[nH]c(=O)c1N=Nc1ccc(S(N)(=O)=O)cc1`, under setting [1], the AC50 was 0.517 µM [rising, partial curve, poor fit]. `O=C(Nc1ccncc1)Nc1ccc(Br)cc1Cl`: the cell number change is 18.8%.

Turning to `Cc1nc(C(=O)Nc2ccc(Cl)cc2)sc1C1(C)CC(c2ccccc2)=NO1` (configuration not stated), the cell number change was found to be 20.7%. The AC50 under setting [1] is 18.4 µM [rising, partial curve]. Consider `CC(C)N1CC(O)=C(c2nc3ccccc3[nH]2)C1=N`, for which the cell number change was -2.65%. Moreover, the AC50 under setting [1] is 0.461 µM [rising, full curve, poor fit]. As for `CCc1nnc(NS(=O)(=O)c2ccc(NC(=O)c3ccccc3OC)cc2)s1`, the cell number change was -7.91%. Moreover, under setting [1], the AC50 is 29.1 µM [rising, single point]. In the case of `Cc1ccc(-n2c(-c3ccco3)nc3nc4ccccc4nc32)cc1F`, the cell number change was -70.5%. Besides, under setting [2], the AC50 was 23.1 µM [falling, partial curve]. For the same compound, the AC50 under setting [1] was 23.1 µM [falling, partial curve].

Regarding `Cc1ccc(S(=O)(=O)n2nc(C)c(S(=O)(=O)N3CCOCC3)c2C)cc1`, the cell number change amounted to 79%. In addition, the AC50 under setting [2] is 16.4 µM [rising, single point]. For the same compound, the AC50 under setting [1] was 25.9 µM [rising, partial curve, poor fit].

`OCCN=C(c1ccccc1)C12CN3CN(CN(C3)C1)C2`: the cell number change was -0.538%. For the same compound, the AC50 under setting [1] is 0.116 µM [falling, full curve]. `Cc1ccc(S(=O)(=O)N(CC(=O)Nc2cccnc2)c2cccc([N+](=O)[O-])c2)cc1`: the cell number change was -14%. For the same compound, the AC50 under setting [1] is 29.1 µM [falling, single point]. Turning to `Cc1cc(NS(=O)(=O)c2ccc(NC(=O)c3ccc([N+](=O)[O-])c(Cl)c3)cc2)no1`, the cell number change came out at 15.7%. The AC50 under setting [1] was 29.1 µM [rising, single point].

With `COC(=O)Cc1ccc(NC(C)=O)cc1`, the cell number change was 6.79%. Turning to `COc1ccc(NC(=O)CSc2nc(O)cc(=O)n2-c2ccccc2)cc1`, the cell number change amounted to 3.47%. Also, the AC50 under setting [1] is 2.59 µM [rising, full curve]. As to `CCOC(=O)N1CCC(N(CCN(C)C)C(=S)Nc2cccc(Cl)c2C)CC1`, the cell number change came to 17%. Moreover, the AC50 under setting [1] is 0.517 µM [rising, full curve, poor fit]. With `Nc1nc(Cl)nc2ccc(Br)cc12`, the cell number change came to 21.5%.

Take `CCOC(=O)C1(CCCc2ccccc2)CCN(S(C)(=O)=O)CC1`: the cell number change is 12.5%. In addition, the AC50 under setting [1] is 6.51 µM [falling, single point]. As to `CC1CCc2nc(NC(=O)Nc3ccc4c(c3)OCO4)sc2C1` (configuration not stated), the cell number change was -40.9%. Also, under setting [2], the AC50 is 29.1 µM [falling, single point]. Moreover, the AC50 under setting [1] was 18.4 µM [falling, partial curve, poor fit]. As to `CCOC(=O)c1ccc(NC(=O)Nc2ccn(C)n2)cc1`, the cell number change came to 13.4%. Also, the AC50 under setting [1] is 0.0058 µM [rising, full curve, poor fit]. Take `CCNC(=O)/C(C#N)=C/c1c(N2CCOCC2)nc2ccccn2c1=O`: the cell number change is -12.7%. Also, the AC50 under setting [2] was 6.51 µM [rising, single point]. Moreover, the AC50 under setting [1] is 6.51 µM [rising, single point]. As for `O=C(CNCc1cccc2ccccc12)Nc1ccccc1[N+](=O)[O-]`, the cell number change was 48.6%. In addition, the AC50 under setting [2] was 7.31 µM [rising, partial curve, poor fit]. As to `COc1ccccc1C(=O)N(C1=NC(C)CS1)c1ccc(Cl)cc1` (configuration not stated), the cell number change amounted to 38.9%. Also, the AC50 under setting [2] is 12.6 µM [rising, partial curve, poor fit]. For `CCn1nc(C(=O)OCC(=O)NC(C)C)c2ccccc2c1=O`, the cell number change came out at 0.906%. The AC50 under setting [2] was 0.00461 µM [rising, full curve, poor fit]. In addition, the AC50 under setting [1] was 0.00461 µM [rising, full curve, poor fit]. Turning to `COc1cccc(Cn2nnc(C(=O)NCc3ccc(F)cc3)c2N)c1`, the cell number change worked out at 53.5%. Further, under setting [2], the AC50 was 1.84 µM [rising, full curve]. Also, the AC50 under setting [1] is 1.3 µM [rising, full curve]. `Cn1cc(Cl)c(C(=O)NC2CCCC2)n1`: the cell number change is -38.9%. Under setting [2], the AC50 is 1.16 µM [falling, full curve]. Regarding `CCOc1ccc(S(=O)(=O)N(CC(=O)NCC2CCCO2)c2ccc(F)cc2)cc1` (configuration not stated), the cell number change is -12.6%. Turning to `CC(C)CNC(=S)NC1CCCC1`, the cell number change is -63.7%. For the same compound, the AC50 under setting [2] is 0.58 µM [falling, full curve]. Further, under setting [1], the AC50 was 29.1 µM [falling, single point]. For the compound `CCOc1ccc(C(=O)N(c2ccccn2)C2CCCCC2)cc1`, the cell number change is -10.9%. Further, the AC50 under setting [1] is 16.4 µM [falling, single point].

In the case of `O=C1CCC(=O)N1c1ccc(NCc2ccccc2Cl)c([N+](=O)[O-])c1`, the cell number change came to 11%. Besides, under setting [1], the AC50 was 0.651 µM [falling, single point]. In the case of `O=C(CN1CCN(C(c2ccccc2)c2ccccc2)CC1)Nc1ccc(N2CCOCC2)cc1`, the AC50 runs as follows: under setting [2], 5.17 µM [falling, single point]; under setting [1], 6.51 µM [falling, single point].

As for `Cc1ccc(S(=O)(=O)N(C)C)cc1NC(=O)COC(=O)Cc1ccccc1F`, the AC50 under setting [2] is 3.66 µM [falling, single point]. As to `COC(=O)c1ccccc1NC(=O)C12CCC(C)(C(=O)O1)C2(C)C` (configuration not stated), the cell number change is 15.1%. Turning to `O=C(Nc1ccc(Cl)c(Cl)c1)N(Cc1cccnc1)Cc1ccco1`, the cell number change was 3.65%. For the same compound, under setting [2], the AC50 is 6.51 µM [falling, single point]. Further, the AC50 under setting [1] is 29.1 µM [falling, single point]. Turning to `O=C(Nc1cccnc1)Nc1ccc2c(c1)OCO2`, the AC50 under setting [2] is 0.517 µM [rising, full curve]. For `COc1ccc(OC)c(CC(=O)NC(c2ccccc2)c2ccccc2)c1`, the cell number change was 7.62%. In addition, the AC50 under setting [2] was 0.058 µM [rising, full curve, poor fit].

With `Cc1nc(Nc2cnc(/C=C/c3cc(C(=O)Nc4cccc(C(F)(F)F)c4)ccc3C)cn2)cc(N2CCNCC2)n1`, the cell number change was -22.5%. Moreover, under setting [1], the AC50 is 29.1 µM [falling, single point].

For the compound `C=CCOc1ccc(CNC(C)(C)C)cc1OC`, the cell number change is -7.35%. For the same compound, the AC50 under setting [1] was 2.31 µM [falling, partial curve]. Regarding `Cc1ccc(N2C(=O)[C@@H]3[C@H](C2=O)C2CCCN2[C@@H]3C(=O)c2ccccc2)cc1` (some centres not stated), the cell number change is -31.2%. The AC50 under setting [2] is 29.1 µM [falling, single point]. With `Cc1ccc(Nc2ncccc2C(N)=O)cc1`, the AC50 under setting [1] is 0.146 µM [rising, full curve, poor fit]. In the case of `CN(c1ccccc1)S(=O)(=O)c1cccc(C(=O)Nc2ccc3c(c2)CCC3)c1`, the cell number change is -0.704%. The AC50 under setting [1] was 0.291 µM [falling, partial curve, poor fit]. As for `CCC(C)(C)NC(=O)/C=C/c1cnc2ccccc2n1`, the cell number change was 3.51%. The AC50 under setting [2] was 3.26 µM [rising, partial curve]. Under setting [1], the AC50 was 29.1 µM [rising, single point].

On to `O=C(NCCCc1ccccc1)c1ccc(-n2cncn2)c([N+](=O)[O-])c1`, for which the AC50 under setting [1] is 2.06 µM [falling, partial curve, poor fit].

Consider `COc1ccc([C@H]2CC(=O)C=C(c3cc(Cl)ccc3OC)C2)cc1`, for which the cell number change is -5.37%. The AC50 under setting [1] is 1.16 µM [falling, single point]. For the compound `COc1ccccc1OCC(=O)Nc1ccc(O)cc1C(=O)O`, the cell number change turned out to be 5.6%. Further, the AC50 under setting [1] was 4.61 µM [falling, full curve]. In the case of `C/C(=N\NC(=O)c1ccco1)c1ccc(NC(=O)c2ccccc2)cc1`, the cell number change is 11.1%. With `COc1cccc(CNc2cnc3ccccc3c2)c1O`, the cell number change was -32.4%. The AC50 under setting [2] is 18.4 µM [falling, single point]. For the same compound, under setting [1], the AC50 is 23.1 µM [falling, single point]. In the case of `Cc1cccc(NC(=S)c2nc3ccccc3s2)c1`, the cell number change stood at 2.15%. Also, the half-maximal activity concentration (AC50) under setting [1] is 2.06 µM [rising, partial curve, poor fit].

As for `C[C@H]1CC[C@H]2C(=O)N[C@H](Cc3ccccc3)C(=O)N2[C@@H]1c1ccccc1`, the cell number change is -2.73%. Moreover, under setting [1], the AC50 is 29.1 µM [falling, single point]. For `CN(C)S(=O)(=O)c1ccc(C(=O)Nc2nnc(SCc3cccc4ccccc34)s2)cc1`, the cell number change is -7.12%. Moreover, under setting [2], the AC50 was 3.66 µM [rising, single point]. Besides, the concentration at half-maximal activity (AC50) under setting [1] is 6.51 µM [rising, single point]. Consider `Cc1ccc(C(=O)NCCC(=O)NCc2ccco2)cc1`, for which the cell number change was 32.1%. Further, the AC50 under setting [2] is 0.103 µM [rising, full curve, poor fit]. Further, under setting [1], the AC50 is 1.64 µM [rising, partial curve]. As to `Cc1cc(/C=C(\C#N)C(=O)O)c(C)n1CCC(C)C`, the cell number change was -13.2%. Further, the AC50 under setting [1] is 0.82 µM [falling, full curve, poor fit]. Consider `Cc1cc(/C=N/NC(=O)c2ccccc2F)c(C)n1-c1ccccc1`, for which the cell number change worked out at 14.2%. Take `COc1ccc(N(CC(=O)NCc2cccnc2)S(=O)(=O)c2ccc(C)c([N+](=O)[O-])c2)cc1`: the AC50 under setting [2] was 6.51 µM [rising, single point]. For the compound `CCOc1cc(C(=O)Nn2cnnc2)cc(OCC)c1OCC`, the cell number change stood at 24.3%.

On to `O=C(O)C1=C[C@H](c2ccc(F)cc2)C[C@H](OCc2ccc(CO)cc2)O1`, for which the cell number change was determined as 40.6%. Further, the AC50 under setting [2] was 6.51 µM [rising, partial curve, poor fit]. As for `COc1cc(C)ccc1OCCON1C(=O)CCC1=O`, the cell number change was -36%. Moreover, the AC50 under setting [2] is 18.4 µM [falling, single point]. Also, the AC50 under setting [1] is 29.1 µM [falling, single point].

On to `C=C1CC2C(CCC3(C)C2CCC3(O)C(C)=O)C2(C)CCC(=O)C=C12` (configuration not stated), for which the cell number change was -4.05%. On the same count and under the same terms, the same measure for `Nn1cnc2scc(-c3ccco3)c2c1=O`: 14.3%. Consider `N#Cc1ccc(NC(=O)Cn2cnc(S(=O)(=O)N3CCOCC3)c2)cc1`, for which the cell number change was -19.4%. Also, under setting [1], the AC50 was 29.1 µM [rising, single point].

For the compound `O=C(/C=C/c1ccc(Cl)cc1)N(c1ccccn1)C1CCCCC1`, the cell number change was -13.2%. The AC50 under setting [1] was 0.13 µM [falling, full curve, poor fit]. Take `Cc1ccc(C(=O)/C=C/c2ccc(F)cc2)o1`: the cell number change is -4.1%. Besides, under setting [1], the AC50 was 2.06 µM [rising, partial curve].

Take `CCN(CC)C(=O)C1CCCN(Cc2ccc3c(c2)OCO3)C1` (configuration not stated): the cell number change is 0.234%. The AC50 under setting [1] is 4.61 µM [rising, full curve].
